{"sequences": {"note": "Amino acid sequences for entries named in this document (tags omitted).", "UniProt P63208": "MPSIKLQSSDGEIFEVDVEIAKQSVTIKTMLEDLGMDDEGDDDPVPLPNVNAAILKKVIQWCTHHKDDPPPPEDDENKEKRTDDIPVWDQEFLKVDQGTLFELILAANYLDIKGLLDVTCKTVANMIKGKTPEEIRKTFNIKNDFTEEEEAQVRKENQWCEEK"}, "source": "paper PMC12170509", "molecular_target": "T1, PDLIM2 (bait of the mass-spectrometry-based proteomic screening) (UniProt Q8R1G6)", "T1 sequence": "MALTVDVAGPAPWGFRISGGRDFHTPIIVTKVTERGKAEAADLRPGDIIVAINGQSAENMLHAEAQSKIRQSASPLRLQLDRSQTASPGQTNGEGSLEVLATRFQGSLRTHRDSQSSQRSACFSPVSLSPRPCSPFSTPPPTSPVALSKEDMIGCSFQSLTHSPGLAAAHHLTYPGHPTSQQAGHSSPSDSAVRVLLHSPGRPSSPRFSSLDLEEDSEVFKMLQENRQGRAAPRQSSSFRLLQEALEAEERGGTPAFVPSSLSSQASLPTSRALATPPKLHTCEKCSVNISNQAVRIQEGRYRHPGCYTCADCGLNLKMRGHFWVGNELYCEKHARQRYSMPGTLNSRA", "test": "affinity purification with mass spectrometry; mass-spectrometry-based proteomic screening for proteins coimmunoprecipitated with PDLIM2 ('our initial study'); no details given", "note": "These are yes or no findings as the source states them, for the method shown. Binding seen in cells or lysates may run through a third protein. Here binding means that the protein was enriched with, or labelled near, the bait; the list need not be complete.", "data": [{"substance": "Skp1 (hit of the mass-spectrometry-based proteomic screening) (from UniProt P63208 1-163)", "values": [{"measurement": "binding", "value": "binds"}]}]}
